Assay results published in doi:10.1101/2022.10.27.514150.
No constants are given. Whether binding was seen depends on the method and setting. Binding seen in cells or lysates may run through a third protein. These calls come from enrichment with a bait or labelling near it, and not all partners need be listed.

Target: T1, ΔNp73α-TAP (UniProt O15350)
T1 sequence: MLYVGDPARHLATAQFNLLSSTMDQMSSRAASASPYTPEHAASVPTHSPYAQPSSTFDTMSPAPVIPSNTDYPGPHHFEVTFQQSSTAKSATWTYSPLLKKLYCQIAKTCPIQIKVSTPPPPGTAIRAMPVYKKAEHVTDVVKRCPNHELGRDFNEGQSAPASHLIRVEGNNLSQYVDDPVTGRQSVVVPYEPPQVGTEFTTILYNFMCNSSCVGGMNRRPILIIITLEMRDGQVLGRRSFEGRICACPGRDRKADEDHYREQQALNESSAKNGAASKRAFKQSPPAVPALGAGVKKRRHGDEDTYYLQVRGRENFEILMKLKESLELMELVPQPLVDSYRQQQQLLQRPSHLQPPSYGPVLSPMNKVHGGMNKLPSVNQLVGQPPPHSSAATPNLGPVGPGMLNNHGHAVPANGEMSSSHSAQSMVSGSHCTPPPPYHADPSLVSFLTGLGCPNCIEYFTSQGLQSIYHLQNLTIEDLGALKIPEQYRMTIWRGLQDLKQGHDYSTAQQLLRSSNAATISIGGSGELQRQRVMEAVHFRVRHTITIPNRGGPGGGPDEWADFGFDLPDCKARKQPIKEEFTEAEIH
Assay: affinity purification with mass spectrometry

B1: endogenous p63 (38HK) (protein, UniProt Q9H3D4 1-680)
chain: MNFETSRCATLQYCPDPYIQRFVETPAHFSWKESYYRSTMSQSTQTNEFLSPEVFQHIWDFLEQPICSVQPIDLNFVDEPSEDGATNKIEISMDCIRMQDSDLSDPMWPQYTNLGLLNSMDQQIQNGSSSTSPYNTDHAQNSVTAPSPYAQPSSTFDALSPSPAIPSNTDYPGPHSFDVSFQQSSTAKSATWTYSTELKKLYCQIAKTCPIQIKVMTPPPQGAVIRAMPVYKKAEHVTEVVKRCPNHELSREFNEGQIAPPSHLIRVEGNSHAQYVEDPITGRQSVLVPYEPPQVGTEFTTVLYNFMCNSSCVGGMNRRPILIIVTLETRDGQVLGRRCFEARICACPGRDRKADEDSIRKQQVSDSTKNGDGTKRPFRQNTHGIQMTSIKKRRSPDDELLYLPVRGRETYEMLLKIKESLELMQYLPQHTIETYRQQQQQQHQHLLQKQTSIQSPSSYGNSSPPLNKMNSMNKLPSVSQLINPQQRNALTPTTIPDGMGANIPMMGTHMPMAGDMNGLSPTQALPPPLSMPSTSHCTPPPPYPTDCSIVSFLARLGCSSCLDYFTTQGLTTIYQIEHYSMDDLASLKIPEQFRHAIWKGILDHRQLHEFSSPSHLLRTPSSASTVSVGSSETRGERVIDAVRFTLRQTISFPPRDEWNDFNFDMDARRNKQQRIKEEGE
B1 was tested, and the binding was “binds”.
